Data as given in PubChem BioAssay AID743121 (NCATS, 2013)
Aim: 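Genes whose silencing strengthens cell killing by camptothecin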 (primary screen). Cell system: MDA-MB-231 cells, a human breast cancer line. Knock-down reagent: single siRNA against human genes, 20 nM siRNA (0.8 pmol per well). Time to read-out: 120 h (drug added 48 h after transfection, read 72 h later). Treatment: camptothecin 20 nM (about EC30) for 72 h; vehicle 0.1% DMSO in parallel plates. Detection: 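Cell viability by ATP luminescence (CellTiter-Glo) as % of non-targeting siRNA wells, and the log2 ratio of viability without drug over viability with camptothecin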. Scale: log2 vehicle/camptothecin viability: higher = stronger sensitisation to camptothecin; viability with camptothecin: higher = more viable cells. Units: viability with camptothecin in % of control. Hit rule: 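Active genes have an RSA gene-level p-value below 0.001, computed from the ratios of their separate siRNAs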.
Here is one part, drawn at random, of about 26,000 reagents. Over the whole deposit, 167 (0.63%) got an active call. 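Calls are per gene from RSA p-values that are not deposited; an individual active-marked siRNA can sensitise only weakly.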 Reagents against one gene are numbered here. Not all columns of the deposit are shown. Reagent sequences are not shown.

For UCP3 (uncoupling protein 3) #1 the deposit lists log2 vehicle/camptothecin viability -0.212; viability with camptothecin 30.9; inactive. After knock-down of UCP3 (uncoupling protein 3) #2, the record shows log2 vehicle/camptothecin viability -0.662; viability with camptothecin 116; inactive. UCP3 (uncoupling protein 3) #3 gave log2 vehicle/camptothecin viability -0.386; viability with camptothecin 72.1; inactive. Against UCP3 (uncoupling protein 3) #4, the values are log2 vehicle/camptothecin viability -0.218; viability with camptothecin 81.2; inactive. Against NCOA5 (nuclear receptor coactivator 5) #1, the entry reads log2 vehicle/camptothecin viability -0.129; viability with camptothecin 106; inactive. After knock-down of NCOA5 (nuclear receptor coactivator 5) #2, the screen gave log2 vehicle/camptothecin viability -0.105; viability with camptothecin 112; inactive.

Depletion of NCOA5 (nuclear receptor coactivator 5) #3 gave: log2 vehicle/camptothecin viability -0.0522; viability with camptothecin 103; inactive. For CDK16 (cyclin dependent kinase 16) #1, the values are log2 vehicle/camptothecin viability -0.231; viability with camptothecin 131; inactive. CDK16 (cyclin dependent kinase 16) #2 gave log2 vehicle/camptothecin viability 0.337; viability with camptothecin 50; inactive. Knock-down of CDK16 (cyclin dependent kinase 16) #3 came out at: log2 vehicle/camptothecin viability -0.506; viability with camptothecin 93.9; inactive. With knock-down of CDK16 (cyclin dependent kinase 16) #4 the results were log2 vehicle/camptothecin viability -0.441; viability with camptothecin 84.6; inactive. With knock-down of ANGPT2 (angiopoietin 2) #1, the record shows log2 vehicle/camptothecin viability -0.449; viability with camptothecin 114; inactive.

With knock-down of ANGPT2 (angiopoietin 2) #2, the record shows log2 vehicle/camptothecin viability 0.429; viability with camptothecin 51.4; inactive. After knock-down of ANGPT2 (angiopoietin 2) #3, the screen gave log2 vehicle/camptothecin viability -0.418; viability with camptothecin 90; inactive. With knock-down of TACR2 (tachykinin receptor 2) #1, the screen gave log2 vehicle/camptothecin viability -0.315; viability with camptothecin 103; inactive. After knock-down of TACR2 (tachykinin receptor 2) #2, the screen gave log2 vehicle/camptothecin viability -0.708; viability with camptothecin 52.4; inactive. With knock-down of TACR2 (tachykinin receptor 2) #3, the screen gave log2 vehicle/camptothecin viability 0.65; viability with camptothecin 21.6; inactive. After knock-down of TACR2 (tachykinin receptor 2) #4 the results were log2 vehicle/camptothecin viability -0.275; viability with camptothecin 84; inactive.

After knock-down of SND1 (staphylococcal nuclease and tudor domain containing 1) #1, the screen gave log2 vehicle/camptothecin viability 0.298; viability with camptothecin 52.6; inactive. SND1 (staphylococcal nuclease and tudor domain containing 1) #2 scored log2 vehicle/camptothecin viability 0.229; viability with camptothecin 77.9; inactive. With knock-down of SND1 (staphylococcal nuclease and tudor domain containing 1) #3 the results were log2 vehicle/camptothecin viability -0.157; viability with camptothecin 72.5; inactive. SND1 (staphylococcal nuclease and tudor domain containing 1) #4 gave log2 vehicle/camptothecin viability -0.443; viability with camptothecin 60.4; inactive. PON2 (paraoxonase 2) #1 scored log2 vehicle/camptothecin viability -0.0688; viability with camptothecin 95.6; inactive. For PON2 (paraoxonase 2) #2, the entry reads log2 vehicle/camptothecin viability -0.0384; viability with camptothecin 74.6; inactive.

PON2 (paraoxonase 2) #3 scored log2 vehicle/camptothecin viability -0.528; viability with camptothecin 74.1; inactive. Against PON2 (paraoxonase 2) #4, the entry reads log2 vehicle/camptothecin viability -0.114; viability with camptothecin 98; inactive. Against LZTS2 (leucine zipper tumor suppressor 2) #1 the deposit lists log2 vehicle/camptothecin viability -0.337; viability with camptothecin 84; inactive. Against LZTS2 (leucine zipper tumor suppressor 2) #2 the deposit lists log2 vehicle/camptothecin viability -0.0847; viability with camptothecin 39.7; inactive. After knock-down of LZTS2 (leucine zipper tumor suppressor 2) #3 the results were log2 vehicle/camptothecin viability -0.499; viability with camptothecin 59.5; inactive. Depletion of LZTS2 (leucine zipper tumor suppressor 2) #4 came out at: log2 vehicle/camptothecin viability 1.17; viability with camptothecin 6.68; inactive.

After knock-down of LINGO2 (leucine rich repeat and Ig domain containing 2) #1, the record shows log2 vehicle/camptothecin viability -0.21; viability with camptothecin 22.5; inactive. Depletion of LINGO2 (leucine rich repeat and Ig domain containing 2) #2 gave: log2 vehicle/camptothecin viability -0.355; viability with camptothecin 69.6; inactive. After knock-down of LINGO2 (leucine rich repeat and Ig domain containing 2) #3, the record shows log2 vehicle/camptothecin viability -0.755; viability with camptothecin 129; inactive. Depletion of LINGO2 (leucine rich repeat and Ig domain containing 2) #4 gave: log2 vehicle/camptothecin viability -0.151; viability with camptothecin 80.7; inactive. With knock-down of TYRP1 (tyrosinase related protein 1) #1 the results were log2 vehicle/camptothecin viability 0.0897; viability with camptothecin 99.3; inactive. After knock-down of TYRP1 (tyrosinase related protein 1) #2, the screen gave log2 vehicle/camptothecin viability -0.298; viability with camptothecin 56.9; inactive.

For TYRP1 (tyrosinase related protein 1) #3, the values are log2 vehicle/camptothecin viability -0.258; viability with camptothecin 116; inactive. TYRP1 (tyrosinase related protein 1) #4 gave log2 vehicle/camptothecin viability -0.19; viability with camptothecin 54.5; inactive.

Only “viability with camptothecin” (5 entries from above):
SND1 (staphylococcal nuclease and tudor domain containing 1) #2	77.9
SND1 (staphylococcal nuclease and tudor domain containing 1) #3	72.5
SND1 (staphylococcal nuclease and tudor domain containing 1) #4	60.4
PON2 (paraoxonase 2) #1	95.6
PON2 (paraoxonase 2) #2	74.6
